# According to the supplement of paper PMC12067093, “Discovery and optimisation of a covalent ligand for TRIM25 and its application to targeted protein ubiquitination” (Chemical Science, 2025):
# Some of the results follow.
# Compound: CC1Cc2ccccc2N1C(=O)C1CCCN(C1)C(=O)CCl (mixture of isomers) [TRIM25 ligand 11 (diastereomer mixture)]
# Assay: probe-labelled cysteine peptide fold change vs DMSO (competition) (log2 fold change); higher = less target engagement (more negative = stronger competition)
# Conditions: THP-1, incubation time: 4 h
# 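Further: competitive chemoproteomic profiling in live THP-1 cells with an iodoacetamide desthiobiotin (IA-DTB) probe, comparing probe-labelled peptide intensities in compound-treated cells against DMSO-treated controls.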
Target,probe-labelled cysteine peptide fold change (10 µM),probe-labelled cysteine peptide fold change (50 µM)
EEF2_P13639_651_KIWCFGPDGTGPNILTDITK (UniProt P13639),-0.345,-0.313
EGFL7_Q9UHF1_267+269_IDSLSEQISFLEEQLGSCSCK (UniProt Q9UHF1),0.102,-0.0497
EIF2B3_Q9NR50_206_FHTGLVDAHLYCLK (UniProt Q9NR50),0.115,0.223
ECHS1_P30084_62_ALNALCDGLIDELNQALK (UniProt P30084),0.133,0.203
ECI2_O75521_368_LHAVNAEECNVLQGR (UniProt O75521),-0.122,-0.229
EGLN1_Q9GZT9_21_QYCELCGK (UniProt Q9GZT9),-0.111,-0.00777
EIF1AX_P47813_51_LEAMCFDGVK (UniProt P47813),0.0748,0.0336
EEF2_P13639_728_RCLYASVLTAQPR (UniProt P13639),-0.16,-0.103
EIF2B4_Q9UI10_437_AHNVPVLVCCETYK (UniProt Q9UI10),-0.0019,0.186
EIF2S1_P05198_6_PGLSCR (UniProt P05198),-0.0924,0.0162
EEF1A1_P68104_234_KDGNASGTTLLEALDCILPPTR (UniProt P68104),-0.177,-0.132
EGLN1_Q9GZT9_208_HGICVVDDFLGK (UniProt Q9GZT9),-0.11,-0.17
EHMT2_Q96KQ7_946_GYENVPIPCVNGVDGEPCPEDYK (UniProt Q96KQ7),-0.0581,0.284
EIF2B3_Q9NR50_379_SVIGSSCLIK (UniProt Q9NR50),-0.0283,-0.007
EI24_O14681_24_DSIWGICTISK (UniProt O14681),-0.152,-0.183
EDC3_Q96F86_353_GAQGISCGR (UniProt Q96F86),-0.071,0.0418
EEF2_P13639_41_STLTDSLVCK (UniProt P13639),-0.0186,-0.16
ECI2_O75521_282_ATFHTPFSHLGQSPEGCSSYTFPK (UniProt O75521),0.307,0.137
EGFL7_Q9UHF1_267+269_IDSLSEQISFLEEQLGSCSCKK (UniProt Q9UHF1),0.39,0.235
ECM1_Q16610_426_VTPNLMGHLCGNQR (UniProt Q16610),0.0595,0.088

# As a working copy, part of the list above.
Target,probe-labelled cysteine peptide fold change (10 µM),probe-labelled cysteine peptide fold change (50 µM)
EI24_O14681_24_DSIWGICTISK (UniProt O14681),-0.152,-0.183
EDC3_Q96F86_353_GAQGISCGR (UniProt Q96F86),-0.071,0.0418
EEF2_P13639_41_STLTDSLVCK (UniProt P13639),-0.0186,-0.16

# (list continues)

Target,probe-labelled cysteine peptide fold change (10 µM),probe-labelled cysteine peptide fold change (50 µM)
EHMT1_Q9H9B1_575_APLLVLCEDHR (UniProt Q9H9B1),0.0485,-0.0116
EEF1AKMT2_Q5JPI9_150_LKVEDFLNLSTQLSGFHICIDK (UniProt Q5JPI9),0.0092,0.079
EGLN1_Q9GZT9_127_AKPPADPAAAASPCR (UniProt Q9GZT9),-0.0729,-0.147
ECD_O95905_312_LAHGFEILCSK (UniProt O95905),-0.121,-0.143
ECD_O95905_267_CLYAQLVQQR (UniProt O95905),-0.0292,-0.11
ECH1_Q13011_159+171_CPKPVIAAVHGGCIGGGVDLVTACDIR (UniProt Q13011),0.0633,-0.106
EHMT1_Q9H9B1_954_YDCVVLFLSR (UniProt Q9H9B1),0.29,0.439
EHMT1_Q9H9B1_627_VNNASYCPHCGEESSK (UniProt Q9H9B1),0.0768,0.0907
EIF2S1_P05198_70_NECVVVIR (UniProt P05198),0.0924,0.24
EEF2_P13639_369_YRCELLYEGPPDDEAAMGIK (UniProt P13639),-0.272,-0.21
EHMT2_Q96KQ7_1115_FINHLCDPNIIPVR (UniProt Q96KQ7),0.137,0.316
EEA1_Q15075_346_DLDCQQLQSR (UniProt Q15075),-0.018,0.107
ECHS1_P30084_213_ICPVETLVEEAIQCAEK (UniProt P30084),-0.106,-0.0881
EIF2D_P41214_442_LDPILCDCILEK (UniProt P41214),0.0414,0.0783
EEF1AKMT1_Q8WVE0_149_IAAHSFDIVIADPPYLSEECLR (UniProt Q8WVE0),-0.00924,-0.00191
EIF2B5_Q13144_335_WVYPLTPEANFTDSTTQSCTHSR (UniProt Q13144),-0.00347,-0.183
ECT2_Q9H8V3_221_VTHLVANCTQGEK (UniProt Q9H8V3),0.0356,-0.104
ECPAS_Q5VYK3_1183_ESSCLALNDLLR (UniProt Q5VYK3),-0.109,0.226
ECI1_P42126_114_GVILTSDRPGVFSAGLDLTEMCGR (UniProt P42126),-0.0308,-0.0841
